Data set [1] is described as follows: in vivo. The following applies: mouse, ip, LD50 (mice i.p.) / ED50 (adjuvant arthritis), read-out: therapeutic range, quotient LD50/ED50. As for the experimental part:
The LD50 values were determined by a standard method from the mortality occurring within 7 days in NMRI (Naval Medical Research Institute) mice (6 animals per dose) after a single intraperitoneal (i.p.) administration.

The nature of data set [2]: Acute gastral ulcerogenity. Further details: species or system male Sprague-Dawley rats. To be noted: rat, in vivo, po. How it is done:
The investigation took place in each case on 10 male Sprague-Dawley rats in which the gastric mucous membrane had been sensitized by hunger stress. The body weight of the animals was between 200 and 300 g. While allowing free access to the drinking water, the feed was withdrawn 48 hours before administration of the test preparations until sacrifice of the animals. The rats were sacrificed 24 hours after oral administration of the substance, and the stomachs were removed, cleaned under running water and inspected for mucous membrane lesions. All macroscopically visible lesions were regarded as ulcers. The number of animals having ulcers was determined for each dose, and the UD50 values, i.e. the doses at which lesions were caused in 50% of the animals, were calculated from this number by the method of Litchfield and Wilcoxon (J. Pharmacol. Exp. Ther. 96 (1949) p. 99).

For 1 compound, selectivity ratio results are on record in patent US4908364A, “Substituted 3-phenyl-7H-thiazol[3,2-b][1,2,4]-triazin-7-ones” (Hoechst Aktiengesellschaft, priority 1987, dated 1990).

With `COc1ccc2cc(C(C)C(=O)O)ccc2c1` (centres unmarked) [Naproxen, 2-(6-methoxy-2-naphthyl)-propionic acid, reference compound], the selectivity ratio in data set [1] was 28.6; in data set [2] it was 1.3.
